Reference: US12480043B2, “Red-light-mediated nucleic acid anchoring-type fluorescent probe, and preparation method therefor and use thereof” (SOOCHOW UNIVERSITY, priority 2020, dated 2025)
At least one structure is not confirmed: it was looked up by name or label, or the drawing left a doubt.

What was measured:
[1] = UV visible near-infrared and fluorescence spectra in aqueous solution; format: physicochemical; conditions: 10 μM in ultrapure water
[2] = TEM and particle size of probe in aqueous solution; format: physicochemical; conditions: TEM
[3] = test system: custom sequence RNA (5′-ACAUCGGGAUAGCGAAGUUGAGAGGAGG-3′); test: RNA cross-linking reaction, RNA nondenaturing gel electrophoresis; format: biochemical; conditions: probe 10 μM, RNA 5 μM, MB 10 μM, 4° C., 660 nm illumination 50 mW/cm^2 10 minutes
[4] = test system: 4T1 cells; test: Co-localization of probe with SYTO RNASelect RNA dye in cells (confocal); format: cell-based, mice; conditions: probe 10 μM + MB 0.1 μM, 4T1 cells 6 hours, 660 nm 50 mW/cm^2 10 minutes
[5] = test system: total RNA in 4T1 cells; test: Fluorescence quantification of total RNA extracted from cells (Trizol method); format: cell-based, mice; conditions: f-CR+MB+660 nm
[6] = test system: cytoplasmic RNA of 4T1 cells; test: RNA nondenaturing gel analysis of extracted cytoplasmic RNA; format: cell-based, mice; conditions: f-CR+MB+660 nm
[7] = test system: 4T1 cells; test: Retention of probe within cells (confocal); format: cell-based, mice; conditions: probe 10 μM + MB 0.1 μM, 4T1 cells 6 hours, 660 nm 50 mW/cm^2 10 minutes
[8] = test system: 4T1 mice breast cancer tumor; test: In vivo photoacoustic imaging of tumor; parameters: species or system BALB/c female mice; conditions: MB intratumor, probe 100 Mm 200 μL tail vein, 660 nm 50 mW/cm^2 3 minutes after 1 hour
[9] = test system: 4T1 cells; test: Apoptosis by Live-dead reagent and cell bright field morphology; format: cell-based, mice; conditions: f-CR+MB+660 nm
[10] = test system: GFP-mRNA; test: GFP expression after transfection of GFP-mRNA cross-linked with probe in vitro; format: cell-based; conditions: GFP-mRNA 2 μM, probe 10 μM, MB 0.1 μM, 660 nm 3 minutes, liposome transfection, 24 hours
[11] = test system: 4T1 mice breast cancer tumor; test: Tumor inhibition experiment in tumor-bearing mice; format: in vivo, BALB/c female mice; conditions: probe 200 μM 200 μL tail vein, MB 0.1 μM 50 μL intratumor, 660 nm 50 mW/cm^2 3 minutes, 13 days
[12] = test system: 4T1 mice breast cancer tumor; test: Immunohistochemistry and immunofluorescence of tumors (H&E, Tunnel, Caspase-3); format: in vivo, BALB/c female mice; conditions: f-CR+MB+660 nm, tumors taken on the first day

CC[N+]1=C(/C=C/C=C/C=C/C=C2\N(CCCCCC(=O)NC(CCCCNC(=O)CCc3ccco3)C(=O)NCCCCC3NC(=O)C(Cc4ccccc4)NC(=O)C(CC(=O)O)NC(=O)CNC(=O)C(CCCNC(=N)N)NC3=O)c3ccc(S(=O)(=O)O)cc3C2(C)C)C(C)(C)c2cc(S(=O)(=O)O)ccc21 (stereo not drawn) [f-CR]
maximum absorption [1]: 747 nm | maximum emission [1]: 789 nm | assembly or nanostructure [2]: assembled into a nanostructure | size of assembled nanostructure [2]: greater than 7.2±0.9 nm | marking of RNA by probe (red fluorescence of Cy7 in gel) [3]: can be marked with RNA obviously | co-localization rate with RNA dye [4]: higher than that in other groups | fluorescence intensity of total RNA extracted from cells [5]: much higher than that of the other groups | red fluorescence of cytoplasmic RNA in gel [6]: exhibited obvious red fluorescence | retention time within the cells [7]: much longer than that in other groups | photoacoustic signals in tumor over time [8]: long-term photoacoustic signals | tumor cell apoptosis [9]: showed the ability to induce tumor cell apoptosis | GFP expression (flow cytometer) [10]: decrease in GFP expression | GFP expression in cells (confocal images) [10]: significant decrease in GFP expression | tumor inhibition [11]: good tumor inhibition ability | apoptosis and necrosis of tumor tissues [12]: could cause apoptosis and necrosis of tumor tissues
